Laboratory results: article PMC8572004
These are yes or no findings as the source states them, for the method shown. Binding seen in cells or lysates may run through a third protein. Some binding calls cover weakened binding; strength is not graded here. Where a sequence is shown, tags or fusion partners need not be part of it.

Target: T1, GST-Rab11 (small GTPase on glutathione beads, loaded with GTPγS or GDP) (Drosophila) (UniProt O18335)
T1 sequence: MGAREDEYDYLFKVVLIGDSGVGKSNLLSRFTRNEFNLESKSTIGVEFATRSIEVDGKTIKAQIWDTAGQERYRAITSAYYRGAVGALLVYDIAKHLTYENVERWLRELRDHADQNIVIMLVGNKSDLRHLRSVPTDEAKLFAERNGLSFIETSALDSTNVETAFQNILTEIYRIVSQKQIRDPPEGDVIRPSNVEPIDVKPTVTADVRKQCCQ
Assay: pull-down; GST-small GTPase (60 μg) on glutathione sepharose beads loaded with GTPγS; S2 cell lysate added in NL100 buffer (20 mM HEPES pH 7.5, 100 mM NaCl, 5 mM MgCl2, 0.1% Triton X-100, 0.1 mM GTPγS); 4°C, 1 h; only the target purified

B1: Sec15 in S2 cell lysate (GST pull-down) (protein, UniProt Q9VDE6 1-766)
chain: MSKVTVQDIEAVDDYWGPTFRSILEGNNTKQIGDQLEQRIRSHDKEIERICNLYYQGFIDSIQELLQVRTQAQQLHNEVHSLDTSLRQISASLIQQGNDLVRARQIESNLASAIEALKSCLPALECYMKFTQQAKNKQYYQALRTLETLETEHLTRLKTHNYRFATQMQIQIPIIKENIRRSSASDFREFLENIRKFSPRIGELAITHTKQLQKRDINAIIAEHMQQMNGGEAGGAGAGGDDDGANVSAQDLIDFSPIYRCLHIYMVLGQREYFEKDYRQQRRDQAKLVLQPPPNMHDNLEAYKTYICAIVGFFVVEDHVKNTAGDVVTSSYLEDLWSSSLTKFVNEISMSSSSCTDPNILLRIKNLIMLSINTFKCYGYTVNILWELLHNMRDHYNEVLLQRWVHVFREILDKEQFLPMVVQNTEEYECIIERFPFHSEQLENAPFPKKFPFSRMVPEVYHQAKEFMYACMKFAEELTLSPNEVAAMVRKAANLLLTRSFSGCLSVVFRQPSITLTQLIQIIIDTQYLEKAGPFLDEFVCHMTNTERSVSQTPSAMFHVARQDAEKQVGLRICSKIDEFFELSAYDWLLVEPPGIASAFITDMISYLKSTFDSFAFKLPHIAQAACRRTFEHIAEKIYSIMYDEDVKQISTGALTQINLDLMQCEFFAASEPVPGLKEGELSKYFLRNRQLLDLLILEEWSTYFHDYGKQENRYHLVQPQSIIVILEKIREADKKPIFSLVRKNDKKKLLETVLKQLKHIADRQN
- binding: binds
